Taken from: PubChem BioAssay AID1259405 (NCATS, 2018)
Shown is an unselected part of about 50,000 reagents. About 4,000 of all reagents (8%) were called active. 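Mouse siRNA library applied to hamster cells; one well for each siRNA.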 Reagent sequences are not shown.

Assay: 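Silenced genes that increase secreted GFP made by CHO cells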 (primary screen)
Cell system: Chinese hamster CHO-K1 ovary cells with stable secreted eGFP expression
Knock-down reagent: single siRNA against mouse genes, 0.8 pmol siRNA per well (2 µl of 400 nM stock)
Timing: 3 days
Measured: 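Per-well intracellular GFP measured by laser scanning cytometry, plus viability from ATP luminescence, each relative to plate median of non-targeting control wells, in %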
Direction: GFP, % of control: higher = more GFP per well, higher productivity; viability (ATP), % of control: higher = more viable cells (more ATP)
Active means: 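a knock-down is called active if GFP reaches 120% or more of non-targeting control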

Slc22a20 [SID363547748] → GFP, % of control: 114; viability (ATP), % of control: 106; outcome: inactive
Slc22a20 [SID363558517] → GFP, % of control: 0; viability (ATP), % of control: 581; outcome: inactive
Slc22a20 [SID363560275] → GFP, % of control: 97.5; viability (ATP), % of control: 87.6; outcome: inactive
Or52z13 [SID363554444] → GFP, % of control: 82.5; viability (ATP), % of control: 74.5; outcome: inactive
Or52z13 [SID363567891] → GFP, % of control: 83; viability (ATP), % of control: 63.8; outcome: inactive
Or52z13 [SID363585248] → GFP, % of control: 43.5; viability (ATP), % of control: 85.3; outcome: inactive
Lmo3 [SID363573587] → GFP, % of control: 89.6; viability (ATP), % of control: 89.4; outcome: inactive
Lmo3 [SID363581331] → GFP, % of control: 57.7; viability (ATP), % of control: 40.4; outcome: inactive
Lmo3 [SID363583795] → GFP, % of control: 57.2; viability (ATP), % of control: 65.3; outcome: inactive
Lrrc8c [SID363539566] → GFP, % of control: 68.5; viability (ATP), % of control: 90.2; outcome: inactive
Lrrc8c [SID363560867] → GFP, % of control: 102; viability (ATP), % of control: 100; outcome: inactive
Lrrc8c [SID363564957] → GFP, % of control: 83.7; viability (ATP), % of control: 82.7; outcome: inactive
Wdr44 [SID363544029] → GFP, % of control: 54; viability (ATP), % of control: 59.7; outcome: inactive
Wdr44 [SID363551765] → GFP, % of control: 70.2; viability (ATP), % of control: 66.1; outcome: inactive
Wdr44 [SID363559370] → GFP, % of control: 74.3; viability (ATP), % of control: 77; outcome: inactive
Or10g9 [SID363544790] → GFP, % of control: 112; viability (ATP), % of control: 84.4; outcome: inactive
Or10g9 [SID363551118] → GFP, % of control: 69.5; viability (ATP), % of control: 67.2; outcome: inactive
Or10g9 [SID363557667] → GFP, % of control: 42.6; viability (ATP), % of control: 29.1; outcome: inactive
Banf2 [SID363545631] → GFP, % of control: 102; viability (ATP), % of control: 53.1; outcome: inactive
Banf2 [SID363549144] → GFP, % of control: 78.2; viability (ATP), % of control: 115; outcome: inactive
Banf2 [SID363562950] → GFP, % of control: 64.7; viability (ATP), % of control: 36.8; outcome: inactive
Riiad1 [SID363543490] → GFP, % of control: 92.6; viability (ATP), % of control: 80.8; outcome: inactive
Riiad1 [SID363552983] → GFP, % of control: 65.9; viability (ATP), % of control: 44; outcome: inactive
Riiad1 [SID363558831] → GFP, % of control: 67.4; viability (ATP), % of control: 75.4; outcome: inactive
Fmn2 [SID363541225] → GFP, % of control: 57.4; viability (ATP), % of control: 61.9; outcome: inactive
Fmn2 [SID363555852] → GFP, % of control: 72.5; viability (ATP), % of control: 85.2; outcome: inactive
Fmn2 [SID363566141] → GFP, % of control: 48.6; viability (ATP), % of control: 77.5; outcome: inactive
Ttyh1 [SID363547777] → GFP, % of control: 38.1; viability (ATP), % of control: 63.1; outcome: inactive
Ttyh1 [SID363558546] → GFP, % of control: 115; viability (ATP), % of control: 96.1; outcome: inactive
Ttyh1 [SID363560304] → GFP, % of control: 143; viability (ATP), % of control: 131; outcome: active
Map4 [SID363572409] → GFP, % of control: 87; viability (ATP), % of control: 70.3; outcome: inactive
Map4 [SID363574169] → GFP, % of control: 91.8; viability (ATP), % of control: 95.4; outcome: inactive
Aire [SID363573465] → GFP, % of control: 55.9; viability (ATP), % of control: 62.7; outcome: inactive
Aire [SID363588704] → GFP, % of control: 82.5; viability (ATP), % of control: 75.5; outcome: inactive
Or52ab4 [SID363544776] → GFP, % of control: 59.5; viability (ATP), % of control: 63.1; outcome: inactive
Or52ab4 [SID363551104] → GFP, % of control: 119; viability (ATP), % of control: 80.8; outcome: inactive
Or52ab4 [SID363557653] → GFP, % of control: 42.3; viability (ATP), % of control: 67.1; outcome: inactive
Atp1b3 [SID363574740] → GFP, % of control: 60.4; viability (ATP), % of control: 79.4; outcome: inactive
Atp1b3 [SID363575796] → GFP, % of control: 152; viability (ATP), % of control: 77.1; outcome: active
Atp1b3 [SID363580372] → GFP, % of control: 81.2; viability (ATP), % of control: 84.2; outcome: inactive
Myadm [SID363562367] → GFP, % of control: 58.2; viability (ATP), % of control: 67.4; outcome: inactive
Myadm [SID363567505] → GFP, % of control: 74.3; viability (ATP), % of control: 84.1; outcome: inactive
Myadm [SID363584862] → GFP, % of control: 64.8; viability (ATP), % of control: 62.8; outcome: inactive
Ptf1a [SID363573642] → GFP, % of control: 71.9; viability (ATP), % of control: 86.7; outcome: inactive
Ptf1a [SID363581386] → GFP, % of control: 48.8; viability (ATP), % of control: 57.6; outcome: inactive
Ptf1a [SID363583850] → GFP, % of control: 93.7; viability (ATP), % of control: 103; outcome: inactive
Mansc1 [SID363562095] → GFP, % of control: 74.3; viability (ATP), % of control: 55.2; outcome: inactive
Mansc1 [SID363567233] → GFP, % of control: 43; viability (ATP), % of control: 77; outcome: inactive
Mansc1 [SID363584590] → GFP, % of control: 104; viability (ATP), % of control: 40.4; outcome: inactive
Map7 [SID363572411] → GFP, % of control: 106; viability (ATP), % of control: 116; outcome: inactive
Map7 [SID363574171] → GFP, % of control: 42.1; viability (ATP), % of control: 61.7; outcome: inactive
Map2k3os [SID363540167] → GFP, % of control: 44.3; viability (ATP), % of control: 60.8; outcome: inactive
Map2k3os [SID363561468] → GFP, % of control: 93.5; viability (ATP), % of control: 101; outcome: inactive
Map2k3os [SID363564504] → GFP, % of control: 141; viability (ATP), % of control: 67.8; outcome: active
